# These are yes or no findings as the source states them, for the method shown. In cells and extracts the contact can be indirect. These calls come from enrichment with a bait or labelling near it, and not all partners need be listed. Tags and fused reporters may be left off the sequences shown.
# Sequences of proteins named here, by UniProt entry; tags and fusion partners are left off. Residues count along the entry.
# UniProt D4A5I9, residues 1046-1285: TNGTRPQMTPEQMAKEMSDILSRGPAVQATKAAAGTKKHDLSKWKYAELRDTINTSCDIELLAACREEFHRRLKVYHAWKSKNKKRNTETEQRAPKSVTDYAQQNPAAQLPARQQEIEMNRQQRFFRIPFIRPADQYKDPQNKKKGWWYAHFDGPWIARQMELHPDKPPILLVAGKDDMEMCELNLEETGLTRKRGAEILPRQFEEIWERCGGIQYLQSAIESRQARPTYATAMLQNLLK
# UniProt P04785, residues 20-509: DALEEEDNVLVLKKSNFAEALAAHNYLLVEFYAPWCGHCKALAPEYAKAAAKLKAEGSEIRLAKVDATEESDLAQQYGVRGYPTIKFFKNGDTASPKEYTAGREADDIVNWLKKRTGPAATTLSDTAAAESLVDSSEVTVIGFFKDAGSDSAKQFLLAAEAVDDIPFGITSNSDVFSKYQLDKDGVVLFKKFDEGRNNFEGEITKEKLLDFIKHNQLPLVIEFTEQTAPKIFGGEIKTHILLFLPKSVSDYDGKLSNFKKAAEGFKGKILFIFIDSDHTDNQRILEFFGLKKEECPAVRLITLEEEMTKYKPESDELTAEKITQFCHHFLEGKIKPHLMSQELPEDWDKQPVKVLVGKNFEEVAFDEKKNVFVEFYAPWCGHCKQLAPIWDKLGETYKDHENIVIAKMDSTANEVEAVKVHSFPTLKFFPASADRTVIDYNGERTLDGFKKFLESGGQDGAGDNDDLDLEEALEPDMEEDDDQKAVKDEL
# UniProt Q6IMY8: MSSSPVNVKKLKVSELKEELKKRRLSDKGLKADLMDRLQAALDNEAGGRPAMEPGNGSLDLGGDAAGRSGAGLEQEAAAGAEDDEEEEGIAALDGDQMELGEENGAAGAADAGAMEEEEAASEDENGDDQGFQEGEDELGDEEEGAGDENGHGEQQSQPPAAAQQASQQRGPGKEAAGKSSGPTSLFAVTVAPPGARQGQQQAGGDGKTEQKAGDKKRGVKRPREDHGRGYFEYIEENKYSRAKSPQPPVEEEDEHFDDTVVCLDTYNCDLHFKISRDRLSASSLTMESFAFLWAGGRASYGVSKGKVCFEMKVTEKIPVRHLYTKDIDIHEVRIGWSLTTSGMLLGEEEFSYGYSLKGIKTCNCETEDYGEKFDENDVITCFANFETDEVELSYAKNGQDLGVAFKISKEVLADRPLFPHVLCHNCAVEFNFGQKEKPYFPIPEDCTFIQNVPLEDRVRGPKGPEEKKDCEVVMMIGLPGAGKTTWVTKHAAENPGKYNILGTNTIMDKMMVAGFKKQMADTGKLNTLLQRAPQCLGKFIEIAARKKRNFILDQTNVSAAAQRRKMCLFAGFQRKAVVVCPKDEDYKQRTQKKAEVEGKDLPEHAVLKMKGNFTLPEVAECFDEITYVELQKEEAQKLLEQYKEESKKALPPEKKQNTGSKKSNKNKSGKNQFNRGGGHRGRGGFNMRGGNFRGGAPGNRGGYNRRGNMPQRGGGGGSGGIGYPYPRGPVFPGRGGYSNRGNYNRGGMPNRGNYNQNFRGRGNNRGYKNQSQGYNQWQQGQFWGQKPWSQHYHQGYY
# UniProt P15865: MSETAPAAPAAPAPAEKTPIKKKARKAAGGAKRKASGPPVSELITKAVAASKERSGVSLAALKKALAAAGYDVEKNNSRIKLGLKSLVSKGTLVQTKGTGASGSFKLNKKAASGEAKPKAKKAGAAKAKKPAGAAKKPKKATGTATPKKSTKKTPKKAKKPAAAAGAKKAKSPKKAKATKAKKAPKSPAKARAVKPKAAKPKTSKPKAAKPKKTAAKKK
# UniProt P13383: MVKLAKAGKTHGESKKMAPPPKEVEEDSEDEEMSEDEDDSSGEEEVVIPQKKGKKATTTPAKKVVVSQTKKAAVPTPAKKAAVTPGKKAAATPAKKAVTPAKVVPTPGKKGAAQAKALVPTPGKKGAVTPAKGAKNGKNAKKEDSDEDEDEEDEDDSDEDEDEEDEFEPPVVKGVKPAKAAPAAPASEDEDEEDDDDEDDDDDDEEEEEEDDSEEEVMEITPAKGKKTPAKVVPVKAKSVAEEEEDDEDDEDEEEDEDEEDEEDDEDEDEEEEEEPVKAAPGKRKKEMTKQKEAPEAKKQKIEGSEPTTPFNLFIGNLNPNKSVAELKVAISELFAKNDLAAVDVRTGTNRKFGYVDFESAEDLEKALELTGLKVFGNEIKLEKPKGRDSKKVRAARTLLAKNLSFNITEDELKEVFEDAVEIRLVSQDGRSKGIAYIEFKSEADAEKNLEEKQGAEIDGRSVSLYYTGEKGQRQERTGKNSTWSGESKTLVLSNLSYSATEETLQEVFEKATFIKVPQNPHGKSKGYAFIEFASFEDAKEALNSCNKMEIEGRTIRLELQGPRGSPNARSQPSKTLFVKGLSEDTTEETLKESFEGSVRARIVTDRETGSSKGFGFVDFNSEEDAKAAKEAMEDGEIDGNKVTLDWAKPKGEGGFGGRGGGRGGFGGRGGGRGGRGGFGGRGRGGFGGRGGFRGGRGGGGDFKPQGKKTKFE
# B1: heterogeneous nuclear ribonucleoprotein M isoform b (protein, UniProt Q62826 1-690)
# chain: MAAGVEAAAEVAATEPKMEEESGAPCVPSGNGAPVPKGEERPTQNEKRKEKNIKRGGNRFEPYANPTKRYRAFITNIPFDVKWQSLKDLVKEKVGEVTYVELLMDAEGKSRGCAVVEFKMEESMKKAAEVLNKHSLSGRPLKVKEDPDGEHARRAMQKAGRLGSTVFVANLDYKVGWKKLKEVFSMAGVVVRADILEDKDGKSRGIGTVTFEQSIEAVQAISMFNGQLLFDRPMHVKMDERALPKGDFFPPERPQQLPHGLGGIGMGLGPGGQPIDANHLNKGIGMGNLGPAGMGMEGIGFGINKIGGMEGPFGGGMENMGRFGSGMNMGRINEILSNALKRGEIIAKQGGSGAGGSVPGIERMGPGIDRISGAGMERMGAGLGHGMDRVGSEIERMGLVMDRMGSVERMGSGIERMGPLGLDHMASSIERMGQTMERIGSGVERMGAGMGFGLERMAAPIDRVGQTIERMGSGVERMGPAIERMGLSMDRMVPTGMGAGLERMGPVMDRMATGLERMGANNLERMGLERMGANSLERMGLERMGANSLERMGPAMGPALGAGIERMGLAMGGAGGASFDRTIEMERGNFGGSFAGSFGGAGGHAPGVARKACQIFVRNLPFDFTWKMLKDKFNECGHVLYADIKMENGKSKGCGVVKFESPEVAERACRMMNGMKLSGREIDVRIDRNA
# B2: synaptotagmin binding, cytoplasmic RNA interacting protein (protein, UniProt Q7TP47 1-533)
# chain: MATEHVNGNGTEEPMDTTSAVIHSENFQTLLDAGLPQKVAEKLDEIYVAGQRKYGGPPPDSVYSGQQPSVGTEIFVGKIPRDLFEDELVPLFEKAGPIWDLRLMMDPLTGLNRGYAFVTFCTKEAAQEAVKLYNNHEIRSGKHIGVCISVANNRLFVGSIPKSKTKEQILEEFSKVTEGLTDVILYHQPDDKKKNRGFCFLEYEDHKTAAQARRRLMSGKVKVWGNVGTVEWADPIEDPDPEVMAKVKVLFVRNLANTVTEEILEKSFSQFGKLERVKKLKDYAFIHFDERDGAVKAMEEMNGKDLEGENIEIVFAKPPDQKRKERKAQRQAAKNQMYDDYYYYGPPHMPPPTRGRGRGGRGGYGYPPDYYGYEDYYDYYGYDYHNYRGGYEDPYYGYEDFQVGARGRGGRGARGAAPSRGRGAAPPRGRAGYSQRGGPGSARGVRGARGGAQQQRGRGVRGARGGRGGNVGGKRKADGYNQPDSKRRQTNNQNWGSQPIAQQPLQGGDHSGNYGYKSENEEFYQDTFGQQWK
# B3: disabled homolog 2, mitogen-responsive phosphoprotein (protein, UniProt O88797 1-768)
# chain: MSNEVETSTTNGQPDQQAAPKAPSKKEKKKGSEKTDEYLLARFKGDGVKYKAKLIGIDDVPDARGDKMSQDSMMKLKGMAAAGRSQGQHKQRIWVNISLSGIKIIDEKTGVIEHEHPVNKISFIARDVTDNRAFGYVCGGEGQHQFFAIKTGQQAEPLVVDLKDLFQVIYNVKKKEEEKKKVEEANKAEENGSEALMTLDDQANKLKLGVDQMDLFGDMSTPPDLNNPTESRDILLVDLNSEIDTNQNSLRENPFLTNGVTSCSLPRPKPQASFLPESAFSANLNFFPTPNPDPFRDDPFAQPDQSAPSSFHSLTSADQKKANPGSLSTPQSKGPLNGDTDYFGQQFDQISNRTGKQEAQGGPWPYPSSQTQQAVRTQNGVSEKEQNGFHIKSSPNPFVGSPPKGLSVPNGVKQDLESSVQSSAHDSIAIIPPPQSTKPGRGRRTAKSSANDLLASDIFASEPPGQMSPTGQPAVPQANFMDLFKTSAPAPMGSGPLVGLGTVPVTPPQAGPWTPVVFTPSTTVVPGAIISGQPSGFGQPLVFGTTPAVQVWNQPSSFATAASPPPPAVWCPTTSVAPNTWSSTSPLGNPFQSSNIFPPSTISTQSFPQPMMSSVLVTPPQPPPRNGPLKDTLSDAFTGLDPLGDKEVKEVKEMFKDFQLRQPPLVPSRKGETPSSGTSSAFSSYFNNKVGIPQEHVDHDDFDANQLLNKINEPPKPAPRQGVLSGTKSADNSLENPFSKGFSSTNPSVVSQPASSDAHRSPFGNPFA
# Molecular target: GST-fused MVI globular tail domain (rat) (UniProt D4A5I9)
# Assay: affinity purification with mass spectrometry; GST-MVI globular tail (or GST alone) on Glutathione Sepharose 4B; PC12 homogenate pre-cleared with GST beads 2 h at 4°C; 50 mM Tris pH 7.5, 150 mM NaCl, 0.5% Triton X-100, 1 mM DTT, 5 mM EGTA; bound proteins by SDS-PAGE, in-gel trypsin digestion and tandem MS; only the target purified
row,Molecule,binding
1,Protein disulfide-isomerase (from UniProt P04785 20-509),binds
2,SP120 /heterogeneous nuclear ribonucleoprotein U (from UniProt Q6IMY8 1-798),binds
3,heterogeneous nuclear ribonucleoprotein K (from UniProt P61980 1-463),binds
4,histone (H1d) (from UniProt P15865 1-219),binds
5,"nucleolin, isoform CRA_d (from UniProt P13383 1-713)",binds
6,B1,binds
7,B2,binds
8,B3,binds

# — article PMC5973263
